PubChem BioAssay AID686937 | Drosophila RNAi Screening Center, 2013
The deposit covers about 23,000 reagents; this is a random part of those with a known target gene and a result. 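Reduced-secretion tags in replicate 1 do not always agree with the z-scores; no criterion for assigning the tags was given.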 The numbers tell different reagents against one gene apart. Reagent sequences are not shown. Not stated in the record: the amount of reagent.

Screen: 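Genes whose loss weakens secretory pathway function in fly cells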 (primary screen)
System: Drosophila S2 cells expressing secreted horseradish peroxidase
Reagents: long dsRNA against Drosophila genes
Time to read-out: about 5.5 days (5 days dsRNA, then 12 h reporter induction)
Conditions: reporter expression induced after 5 days of dsRNA, read 12 h later; inducer not stated
Detection: 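Chemiluminescent measurement of peroxidase in the medium 12 h after reporter induction, following 5 days of dsRNA, given as a z-score per plate; higher means more secretion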
Scale: z-score: higher = more reporter secreted into medium

| target gene | dsRNA no. | z-score, replicate 1 | z-score, replicate 2 | z-score, replicate 3 | z-score, replicate 4 | phenotype, replicate 1 |
| --- | --- | --- | --- | --- | --- | --- |
| Atg10 | 1 | 0.46 | 0.34 | – | – | – |
| Listericin | 1 | 0.33 | 0.28 | – | – | – |
| Ndg | 1 | 0.49 | 0.42 | – | – | – |
| Nmt | 1 | -0.85 | -0.79 | – | – | – |
| MICU1 | 1 | 0.1 | 0.1 | – | – | – |
| Nelf-E | 1 | 0.63 | 0.49 | – | – | – |
| Pex23 | 1 | 0.14 | 0.21 | – | – | – |
| Pex23 | 2 | 0.38 | 0.2 | – | – | – |
| Rpn10 | 1 | -1.56 | -0.49 | – | – | reduced secretion |
| CG32507 | 1 | 0.21 | 0.25 | 0.06 | -0.18 | – |
| CG32944 | 1 | 0.39 | 0.19 | – | – | – |
| CG32944 | 2 | 0.48 | 0.04 | – | – | – |
| CG13250 | 1 | 0.39 | 0.08 | – | – | – |
| ppk25 | 1 | 0.25 | 0.28 | – | – | – |
| qtc | 1 | -0.01 | 0.22 | – | – | – |
| qtc | 2 | -7.48 | 0.07 | – | – | reduced secretion |
| Polr3C | 1 | -0.11 | -0.07 | – | – | – |
| Ost48 | 1 | -0.46 | -0.63 | – | – | – |
| Lgr1 | 1 | 0.4 | 0.46 | – | – | – |
| Acsf3 | 1 | -0.01 | 0.46 | – | – | – |
| snRNP-U1-C | 1 | -2.79 | -1.26 | – | – | reduced secretion |
| CG15475 | 1 | 0.38 | 0.37 | – | – | – |
| CG7272 | 1 | 0.24 | 0.23 | – | – | – |
| hng2 | 1 | 0.21 | 0.22 | – | – | – |
| GluRIIB | 1 | -0.68 | -0.18 | – | – | – |
| Mtk | 1 | 0.36 | 0.32 | – | – | – |
| Uxt | 1 | -0.18 | -0.09 | – | – | – |
| Sr-CIV | 1 | 0.22 | 0.36 | – | – | – |
| Or65a | 1 | -0.17 | 0.33 | – | – | – |
| CG31797 | 1 | 0.24 | 0.51 | – | – | – |
| CG31797 | 2 | 0.51 | 0.46 | – | – | – |
| CG43074 | 1 | -0.25 | 0.16 | – | – | – |
| CG7296 | 1 | 0.27 | 0.69 | 0.41 | 0.41 | – |
| CG7296 | 2 | -0.25 | -0.31 | – | – | – |

Taken from above.
Sr-CIV, z-score, replicate 1 = 0.22
Entry of Lgr1 in “z-score, replicate 2”: 0.46
Result for CG31797 #2 in “z-score, replicate 1”: 0.51
